# Assay results from patent US20250002596A1, “NEUTRALIZING ANTI-CD95L MONOCLONAL ANTIBODIES” (INSTITUT NATIONAL DE LA SANTÉ ET DE LA RECHERCHE MÉDICALE, priority 2021, published 2025).
# Chains of the proteins cited; added tags and fusions are not shown. Lines headed by an entry give the natural chain unless they say otherwise; changes in a name come on top.
# UniProt P48023: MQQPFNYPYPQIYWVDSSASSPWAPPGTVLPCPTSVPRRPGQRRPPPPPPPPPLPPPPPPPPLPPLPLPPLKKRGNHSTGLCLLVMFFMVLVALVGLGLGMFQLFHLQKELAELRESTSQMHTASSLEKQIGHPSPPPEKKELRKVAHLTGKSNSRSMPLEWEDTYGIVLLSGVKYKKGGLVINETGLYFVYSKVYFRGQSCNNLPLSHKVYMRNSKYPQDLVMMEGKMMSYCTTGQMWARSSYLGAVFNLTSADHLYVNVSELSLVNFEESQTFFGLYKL
# Results are given in words; binding and its absence hold for the method and conditions named. Some binding calls cover weakened binding; strength is not graded here.
# B1: JQ3 neutralizing anti-CD95L monoclonal antibody (IgG1κ) (antibody, V domains shown)
# VH: EIQLQQTGPELVKPGASVKISCKASGFSFTDYIMVWVKQSHGKILEWIGDISPYYGTATYNLKFKGKATLTVVKSSSTAYMQLNSLTSEDSAVYYCARAPNRYEVMDYWGQGTSVTVSS
# VL: QIVFTQSPAIMSAFLGEEITLTCSASSSVSYMHWYQQKSGTSPKLLIYNTFNLASGVPSRFSGSGSGTFYSLTISSVEAEDAADYYCHQWSSYPTFGGGTKLEIK
# notes: Mouse (Balb/c) hybridoma antibody, IgG1 kappa, purified on protein A; also called JQ3 mAb
# Biological target: Ig-CD95L (soluble and cytotoxic human CD95L) (human) (UniProt P48023)
# Test: ELISA-type screen on IgCD95L immobilized in microtiter plates
binder,measurement,value
B1,binding,binds
